From the supplement of paper PMC6078165
The reference is the same well before dosing, and untreated signal decays as well.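 Fibroblast labels denote human fibroblasts, mainly primary ones from uterus (C12385, HUF), lung (H6013), bone (Hs27A), adrenal (HADF) and skin (WS1), plus mammary HMF and breast cancer-associated Hs343T. Cancer cells are basal-like or mesenchymal-like triple-negative breast cancer lines. A hit is a response shift exceeding 3x replicate standard deviation. The tissue of the other fibroblasts is not given here.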

Tested on: MDAMB231
Assay: relative JC-1 red fluorescence (viability) vs pre-drug, coculture with fibroblast (fraction); higher = more viable cancer cells
Method: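 JC-1 labelled TNBC cells cocultured 1:1 (1,500 cells each) with CellTrace Violet stained primary or stromal fibroblasts in 384-well plates in FluoroBrite medium, treated with one of 42 anticancer drugs at 0.1, 1, 10 or 100 uM. JC-1 red fluorescence (mitochondrial integrity in cancer cells only) was read by plate reader every 8 h for 72 h. Values are normalised to each well's pre-drug value. The stock of one drug was tenfold lower, so its dose labels may be too high.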

O=C1c2c(O)ccc(O)c2C(=O)c2c(NCCNCCO)ccc(NCCNCCO)c21 [Mitoxantrone]
relative JC-1 red fluorescence
Conditions | 8 h | 16 h | 24 h | 32 h | 40 h | 48 h | 56 h | 64 h | 72 h
0.1 µM, coculture fibroblast: C12385 | 0.698 | 0.6964 | 0.575 | 0.6114 | 0.5631 | 0.5293 | 0.49 | 0.4774 | 0.4573
0.1 µM, coculture fibroblast: H6013 | 0.845 | 0.804 | 0.769 | 0.754 | 0.718 | 0.697 | 0.684 | 0.658 | 0.621
0.1 µM, coculture fibroblast: H6019 | 0.7196 | 0.664 | 0.604 | 0.597 | 0.5522 | 0.541 | 0.497 | 0.495 | 0.4652
0.1 µM, coculture fibroblast: H6076 | 0.8734 | 0.774 | 0.715 | 0.70672 | 0.682 | 0.663 | 0.64 | 0.635 | 0.636
0.1 µM, coculture fibroblast: H6231 | 0.878 | 0.795 | 0.729 | 0.687 | 0.6401 | 0.6124 | 0.5661 | 0.55 | 0.519
0.1 µM, coculture fibroblast: HADF | 0.83542 | 0.786 | 0.771 | 0.757 | 0.735 | 0.701 | 0.695 | 0.673 | 0.628
0.1 µM, coculture fibroblast: HCFa | 0.8265 | 0.756 | 0.714 | 0.699 | 0.672 | 0.629 | 0.6 | 0.567 | 0.523
0.1 µM, coculture fibroblast: HCPF | 0.844 | 0.746 | 0.6736 | 0.6662 | 0.606 | 0.574 | 0.543 | 0.519 | 0.508
0.1 µM, coculture fibroblast: HHSteC | 0.8388 | 0.789 | 0.756 | 0.723 | 0.696 | 0.666 | 0.629 | 0.6 | 0.559
0.1 µM, coculture fibroblast: HMF | 0.833 | 0.74 | 0.682 | 0.663 | 0.623 | 0.595 | 0.562 | 0.546 | 0.535
0.1 µM, coculture fibroblast: HPFa | 0.8765 | 0.8529 | 0.796 | 0.772 | 0.756 | 0.732 | 0.68 | 0.647 | 0.595
0.1 µM, coculture fibroblast: HUF | 0.803 | 0.723 | 0.726 | 0.628 | 0.583 | 0.568 | 0.521 | 0.513 | 0.499
0.1 µM, coculture fibroblast: Hs5 | 0.874 | 0.817 | 0.798 | 0.773 | 0.752 | 0.707 | 0.686 | 0.668 | 0.659
0.1 µM, coculture fibroblast: Hs27A | 0.834 | 0.7802 | 0.754 | 0.748 | 0.714 | 0.6613 | 0.675 | 0.662 | 0.633
0.1 µM, coculture fibroblast: Hs343T | 0.8629 | 0.77 | 0.725 | 0.709 | 0.679 | 0.641 | 0.605 | 0.588 | 0.568
0.1 µM, coculture fibroblast: WS1 | 0.713 | 0.713 | 0.613 | 0.631 | 0.614 | 0.595 | 0.544 | 0.526 | 0.506
1 µM, coculture fibroblast: C12385 | 0.419 | 0.42 | 0.464 | 0.452 | 0.372 | – | – | – | –
1 µM, coculture fibroblast: H6013 | 0.544 | 0.5213 | 0.518 | 0.52 | 0.525 | – | – | – | –
1 µM, coculture fibroblast: H6019 | 0.448 | 0.4331 | 0.454 | 0.4571 | 0.44063 | – | – | – | –
1 µM, coculture fibroblast: H6076 | 0.6857 | 0.644 | 0.675 | 0.698 | 0.687 | – | – | – | –
1 µM, coculture fibroblast: H6231 | 0.694 | 0.599 | 0.635 | 0.648 | 0.647 | – | – | – | –
1 µM, coculture fibroblast: HADF | 0.506 | 0.472 | 0.481 | 0.47 | 0.47 | – | – | – | –
1 µM, coculture fibroblast: HCFa | 0.568 | 0.565 | 0.589 | 0.586 | 0.597 | – | – | – | –
1 µM, coculture fibroblast: HCPF | 0.676 | 0.585 | 0.598 | 0.612 | 0.6038 | – | – | – | –
1 µM, coculture fibroblast: HHSteC | 0.591 | 0.6 | 0.611 | 0.609 | – | – | – | – | –
1 µM, coculture fibroblast: HMF | 0.66685 | 0.587 | 0.621 | 0.651 | – | – | – | – | –
1 µM, coculture fibroblast: HPFa | 0.585 | 0.563 | 0.565 | 0.57 | – | – | – | – | –
1 µM, coculture fibroblast: HUF | 0.503 | 0.45 | 0.518 | 0.465 | – | – | – | – | –
1 µM, coculture fibroblast: Hs5 | 0.7035 | 0.6612 | 0.6666 | 0.6577 | – | – | – | – | –
1 µM, coculture fibroblast: Hs27A | 0.583 | 0.565 | 0.595 | 0.601 | – | – | – | – | –
1 µM, coculture fibroblast: Hs343T | 0.682 | 0.573 | 0.575 | 0.5758 | – | – | – | – | –
1 µM, coculture fibroblast: WS1 | 0.4197 | 0.397 | 0.436 | 0.416 | – | – | – | – | –
